Laboratory results published in PMC10163288.
The list shows a part of the results.

B1: il2ra_site2_3nfp_normal_mot_HHH_b2_05132_000000098_0001_38_52_H_._ems_3hC_866_af2_0001_0000300046_0000001_0 (protein)
chain: SEEEEEEIEELERQLREAVKRNDKELIREIIKLITRFVYKFADDPEAFKLYSLAEEALLLVAQKS
B2: il2ra_site2_3nfp_sap_23_mot_HHH_b1_06589_000000230_0001_37_50_H_._9e86e7d3cbcc58356358305d9d77cb6d_0001_1_af2_0001_0000200011_0000001_0_0001 (protein)
chain: SSSSSKREEYIRAAIELAREAAEQGDPEVARRILHIALLAAEDLGNEELFEEVEELLRELSSSSS
B3: il2ra_site2_3nfp_normal_mot_HHH_b1_05627_af2_000000038_0001_43_56_H_._HHH_b2_02384_0001_0000200007_0000001_0 (protein)
chain: SSSSKAEEYLEAALLALEELKEEGNEEAARKVARAALLLAENLNDEELFEEIREILEELESSSSS
B4: il2ra_site2_3nfp_sap_24_mot_HHH_b1_05437_000000005_0001_40_57_H_._efb1e6a814c01858843eeca3a22dd67d_0001_0001_0000500037_0000001_0_0001 (protein)
chain: SSSSDRAEEYLRAALALLELAVEEGNEEQIKALTEMIKLAARANRDPEVEERAEELLEEFGSSSS
B5: il2ra_site2_2erj_normal_mot_HHH_b1_07584_000000201_0001_42_55_H_._HHH_b1_06558_af2_0001_0000100001_0000001_0 (protein)
chain: SSSDEFRELAIKAHELIRKYFEEGDERYREEVEELIEELKEEGDETLVRYLELSLRHAERASSSS
B6: il2ra_site2_2erj_sap_27_mot_HHH_b1_08185_000000063_0001_41_55_H_._HHH_b1_03158_0001_0000300009_0000001_0_0001_af2pred_0001_1_af2pred_swapped (protein)
chain: SSSDAQERAREVLEEVIELLRQGNHEEAKKLLEEAREILEELGDRAAVRLIEAALRLLESLSSSS
B7: il2ra_site1_1z92_sap_5_mot_add8a691351788dd45ba4deda1838316_0001_1_000000225_0001_37_51_H_._78fdcade25ff32c2c6d5a412dc31b168_0001_1_0001_0000100004_0000001_0_00 … (protein)
chain: SSSSSKYEKSIRWALKLLESAAKTRNERLFEFVVRQIRMAVKQNNNEELEEELERLEREFRSSSS
B8: il2ra_site2_3nfp_normal_mot_HHH_b2_01155_000000159_0001_38_52_H_._c393a752425a4fe2e67a9f8335af7c62_0001_1_0001_0000300016_0000001_0 (protein)
chain: SKLEEAKEVAKKANNPEAEEIVERVEELLREGDPEKLRELLARVTNEAYERNDPELFAVIAELAF
B9: il2ra_site1_1z92_normal_mot_HHH_b1_02362_af2_000000131_0001_1_17_H_._HHH_b1_03387_0001_0001300105_0000001_0_af2pred_0001_af2pred (protein)
chain: SSSSSDYARVALRILAKLFSEFGLSEEQLRILHEVALRLAERGLSEEEIERLLEEVAEELSSSSS
B10: il2ra_site2_3nfp_normal_mot_HHH_b2_01406_000000272_0001_41_55_H_._HHH_b1_00555_af2_0001_0000500051_0000001_0 (protein)
chain: SSSSDVEELLEEVRELLERGDLHEAFQVLAEASELAARLGDPELAELVAELYKLARELARKSSSS

biological target: il2ra, P01589; assay: yeast display titration

Apparent Kd, inactive:
B1 no binding seen
B2 no binding seen
B3 no binding seen
B4 no binding seen
B5 no binding seen
B6 no binding seen
B7 no binding seen
B8 no binding seen
B9 no binding seen
B10 no binding seen

An excerpt of the results above, for reference:
Apparent Kd, inactive:
B3 no binding seen
B4 no binding seen
